The values that follow come from publication PMC8998810.

These are yes or no findings as the source states them, for the method shown. Binding calls can cover weak binding; strength is not graded here. Where a sequence is shown, tags or fusion partners need not be part of it.

The target in this test is T1, BD-RIN4 (full-length RIN4 fused with the GAL4 DNA-binding domain) (Arabidopsis) (UniProt Q8GYN5).
T1 sequence: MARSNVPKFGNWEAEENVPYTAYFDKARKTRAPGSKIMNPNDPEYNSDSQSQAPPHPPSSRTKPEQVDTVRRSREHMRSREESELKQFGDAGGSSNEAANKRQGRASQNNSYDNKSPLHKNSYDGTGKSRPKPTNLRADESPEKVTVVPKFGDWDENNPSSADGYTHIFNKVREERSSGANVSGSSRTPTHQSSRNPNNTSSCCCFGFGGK
Description: two-hybrid; yeast two-hybrid, strain MaV203; BD-RIN4 and AD-AHAs co-transformed; growth on SC/-Leu-Trp-His with 3-AT; empty AD and BD as negative controls.
Take “AD-AHA1 (terminal fragment of AHA1 fused with the GAL4 activation domain) (Arabidopsis) (domain or fragment)”: the binding result is reported as “binds”.

In the case of “AD-AHA2 (terminal fragment of AHA2 fused with the GAL4 activation domain) (Arabidopsis) (domain or fragment)”, the binding result is given as “binds”.

For the substance “AD-AHA5 (terminal fragment of AHA5 fused with the GAL4 activation domain) (Arabidopsis) (domain or fragment)”, the binding entry is given as “binds”.
